Measured values from the supplement of paper PMC12823440, “Inhibitors supercharge kinase turnover through native proteolytic circuits” (Nature, 2025).
Counter-ions that a name gives are not always drawn. The list shows a part of the results. Hit calls seldom repeat between salt and free forms of one compound.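 Kinases, fused to nanoluciferase, were expressed in K562 cells; luminescence was measured every 4 h from 2 to 18 h as percent of control (DMSO = 100%, positive control = 0%). A time point is decreased if signal falls significantly (2 sigma). Hits were called by the authors by a rule that is not shown; the count of time points alone does not decide it.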

Protein sequences, listed by entry. Tags and fused reporters are not part of them. Lines headed by an entry give the natural chain unless they say otherwise; changes in a name come on top.
UniProt Q9UQM7, whole entry: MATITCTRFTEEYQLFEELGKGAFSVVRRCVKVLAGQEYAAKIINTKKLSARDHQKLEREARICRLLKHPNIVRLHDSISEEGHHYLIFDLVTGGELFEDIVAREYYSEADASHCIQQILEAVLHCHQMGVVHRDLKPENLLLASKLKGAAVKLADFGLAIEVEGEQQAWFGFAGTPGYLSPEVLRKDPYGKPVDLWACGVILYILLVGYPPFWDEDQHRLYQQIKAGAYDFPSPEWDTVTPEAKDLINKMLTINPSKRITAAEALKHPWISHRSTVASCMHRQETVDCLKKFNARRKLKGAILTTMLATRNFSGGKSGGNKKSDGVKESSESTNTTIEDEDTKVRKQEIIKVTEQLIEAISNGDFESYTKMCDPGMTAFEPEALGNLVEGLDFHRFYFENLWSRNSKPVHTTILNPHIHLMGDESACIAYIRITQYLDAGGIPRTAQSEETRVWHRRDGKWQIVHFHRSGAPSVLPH
UniProt Q13555: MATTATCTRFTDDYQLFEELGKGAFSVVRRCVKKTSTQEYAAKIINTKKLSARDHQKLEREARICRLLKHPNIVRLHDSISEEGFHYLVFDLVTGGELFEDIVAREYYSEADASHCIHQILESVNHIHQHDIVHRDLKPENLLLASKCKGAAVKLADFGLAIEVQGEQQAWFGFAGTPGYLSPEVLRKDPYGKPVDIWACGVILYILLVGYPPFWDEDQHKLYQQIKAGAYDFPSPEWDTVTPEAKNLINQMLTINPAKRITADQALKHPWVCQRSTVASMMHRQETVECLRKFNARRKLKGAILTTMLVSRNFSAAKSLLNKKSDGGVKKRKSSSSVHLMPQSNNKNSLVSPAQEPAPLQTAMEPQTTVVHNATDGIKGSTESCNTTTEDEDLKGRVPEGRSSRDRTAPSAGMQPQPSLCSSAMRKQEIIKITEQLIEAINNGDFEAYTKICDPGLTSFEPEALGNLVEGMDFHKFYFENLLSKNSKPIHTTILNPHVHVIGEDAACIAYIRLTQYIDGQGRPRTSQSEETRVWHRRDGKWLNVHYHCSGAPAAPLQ
UniProt Q15131: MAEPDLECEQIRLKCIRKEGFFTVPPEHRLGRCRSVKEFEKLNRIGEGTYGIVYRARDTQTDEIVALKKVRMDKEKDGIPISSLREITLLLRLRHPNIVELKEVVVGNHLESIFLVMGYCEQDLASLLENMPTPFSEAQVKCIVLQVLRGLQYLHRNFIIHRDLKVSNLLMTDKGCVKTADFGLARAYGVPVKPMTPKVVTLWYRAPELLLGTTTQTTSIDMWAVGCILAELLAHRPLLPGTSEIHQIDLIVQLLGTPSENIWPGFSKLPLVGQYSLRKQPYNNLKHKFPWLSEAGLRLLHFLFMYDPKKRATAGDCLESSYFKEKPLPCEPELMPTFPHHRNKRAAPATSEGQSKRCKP
UniProt Q00526: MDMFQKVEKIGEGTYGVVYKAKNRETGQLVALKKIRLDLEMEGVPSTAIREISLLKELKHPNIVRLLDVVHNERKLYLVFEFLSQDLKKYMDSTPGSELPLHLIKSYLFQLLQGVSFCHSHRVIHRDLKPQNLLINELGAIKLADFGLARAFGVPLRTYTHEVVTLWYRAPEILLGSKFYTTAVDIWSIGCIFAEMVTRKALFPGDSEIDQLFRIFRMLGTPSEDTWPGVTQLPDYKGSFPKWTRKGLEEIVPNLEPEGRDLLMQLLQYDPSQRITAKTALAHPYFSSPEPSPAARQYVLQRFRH
UniProt Q00535, whole entry, looked up: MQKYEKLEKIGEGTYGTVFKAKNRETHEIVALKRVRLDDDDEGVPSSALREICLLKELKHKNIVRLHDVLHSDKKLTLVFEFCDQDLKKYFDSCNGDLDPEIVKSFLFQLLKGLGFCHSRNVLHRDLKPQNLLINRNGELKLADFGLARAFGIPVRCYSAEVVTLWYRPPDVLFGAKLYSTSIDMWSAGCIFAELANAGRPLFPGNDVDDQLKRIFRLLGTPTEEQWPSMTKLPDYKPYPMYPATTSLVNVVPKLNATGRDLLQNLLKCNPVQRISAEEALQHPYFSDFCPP
UniProt Q00534, whole entry: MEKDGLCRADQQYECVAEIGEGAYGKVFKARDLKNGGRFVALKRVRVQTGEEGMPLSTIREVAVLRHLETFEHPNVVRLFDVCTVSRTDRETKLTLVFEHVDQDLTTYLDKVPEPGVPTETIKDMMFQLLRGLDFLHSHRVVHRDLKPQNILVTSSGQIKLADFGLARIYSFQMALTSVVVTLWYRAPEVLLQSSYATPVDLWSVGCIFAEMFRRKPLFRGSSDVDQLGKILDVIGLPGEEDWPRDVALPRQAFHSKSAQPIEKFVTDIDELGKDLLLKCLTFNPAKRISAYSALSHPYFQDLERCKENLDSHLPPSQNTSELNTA
UniProt O96017, whole entry: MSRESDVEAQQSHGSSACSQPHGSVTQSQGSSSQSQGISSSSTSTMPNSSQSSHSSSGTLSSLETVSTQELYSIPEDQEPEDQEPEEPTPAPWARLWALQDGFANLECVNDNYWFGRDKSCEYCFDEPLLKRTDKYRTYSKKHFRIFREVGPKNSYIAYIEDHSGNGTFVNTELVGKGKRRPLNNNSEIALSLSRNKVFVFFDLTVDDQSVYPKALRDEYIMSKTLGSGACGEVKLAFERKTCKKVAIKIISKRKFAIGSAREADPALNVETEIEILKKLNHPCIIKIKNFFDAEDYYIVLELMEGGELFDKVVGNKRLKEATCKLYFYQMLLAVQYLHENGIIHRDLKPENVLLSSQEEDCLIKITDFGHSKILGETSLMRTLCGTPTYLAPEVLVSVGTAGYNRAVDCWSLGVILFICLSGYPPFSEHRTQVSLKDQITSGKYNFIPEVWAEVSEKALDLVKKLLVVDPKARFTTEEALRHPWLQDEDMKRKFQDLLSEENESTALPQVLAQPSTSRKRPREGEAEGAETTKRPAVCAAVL
UniProt P07333, whole entry: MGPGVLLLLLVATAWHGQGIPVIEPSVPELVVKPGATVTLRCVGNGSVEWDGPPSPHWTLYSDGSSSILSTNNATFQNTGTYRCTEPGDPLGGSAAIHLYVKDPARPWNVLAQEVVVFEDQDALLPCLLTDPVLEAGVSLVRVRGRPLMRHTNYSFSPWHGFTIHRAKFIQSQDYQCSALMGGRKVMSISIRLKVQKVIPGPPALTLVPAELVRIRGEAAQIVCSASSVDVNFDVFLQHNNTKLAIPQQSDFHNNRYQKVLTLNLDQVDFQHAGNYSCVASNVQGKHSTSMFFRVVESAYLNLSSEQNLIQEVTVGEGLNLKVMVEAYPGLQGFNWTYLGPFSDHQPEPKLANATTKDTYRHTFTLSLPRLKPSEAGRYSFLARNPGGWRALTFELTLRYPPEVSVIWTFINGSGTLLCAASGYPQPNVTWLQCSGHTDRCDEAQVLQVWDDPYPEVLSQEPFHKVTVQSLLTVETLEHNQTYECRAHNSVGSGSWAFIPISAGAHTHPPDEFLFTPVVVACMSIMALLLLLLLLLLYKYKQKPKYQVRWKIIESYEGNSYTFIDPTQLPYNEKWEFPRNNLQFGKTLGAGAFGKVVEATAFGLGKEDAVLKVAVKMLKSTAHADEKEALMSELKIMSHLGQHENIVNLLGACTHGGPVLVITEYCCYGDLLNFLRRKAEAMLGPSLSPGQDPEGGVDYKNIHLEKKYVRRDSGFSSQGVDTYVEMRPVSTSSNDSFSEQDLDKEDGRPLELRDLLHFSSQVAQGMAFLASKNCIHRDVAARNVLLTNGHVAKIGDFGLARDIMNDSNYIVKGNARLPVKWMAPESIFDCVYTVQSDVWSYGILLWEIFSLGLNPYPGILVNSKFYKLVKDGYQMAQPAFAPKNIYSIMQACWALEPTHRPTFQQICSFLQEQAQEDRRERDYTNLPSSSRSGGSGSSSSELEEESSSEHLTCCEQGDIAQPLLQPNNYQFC
UniProt P41240: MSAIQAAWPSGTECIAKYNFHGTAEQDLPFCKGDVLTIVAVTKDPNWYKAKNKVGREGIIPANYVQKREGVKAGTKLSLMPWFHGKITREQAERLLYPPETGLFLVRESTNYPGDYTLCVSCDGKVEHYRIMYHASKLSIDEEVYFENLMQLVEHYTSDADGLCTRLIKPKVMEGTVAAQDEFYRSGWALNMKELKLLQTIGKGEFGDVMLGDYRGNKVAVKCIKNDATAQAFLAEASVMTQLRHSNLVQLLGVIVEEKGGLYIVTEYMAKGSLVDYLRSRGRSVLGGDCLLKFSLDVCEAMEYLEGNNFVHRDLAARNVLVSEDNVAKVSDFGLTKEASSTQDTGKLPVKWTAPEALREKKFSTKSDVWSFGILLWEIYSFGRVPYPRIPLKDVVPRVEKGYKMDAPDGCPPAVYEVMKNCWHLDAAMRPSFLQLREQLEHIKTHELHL
UniProt P48729: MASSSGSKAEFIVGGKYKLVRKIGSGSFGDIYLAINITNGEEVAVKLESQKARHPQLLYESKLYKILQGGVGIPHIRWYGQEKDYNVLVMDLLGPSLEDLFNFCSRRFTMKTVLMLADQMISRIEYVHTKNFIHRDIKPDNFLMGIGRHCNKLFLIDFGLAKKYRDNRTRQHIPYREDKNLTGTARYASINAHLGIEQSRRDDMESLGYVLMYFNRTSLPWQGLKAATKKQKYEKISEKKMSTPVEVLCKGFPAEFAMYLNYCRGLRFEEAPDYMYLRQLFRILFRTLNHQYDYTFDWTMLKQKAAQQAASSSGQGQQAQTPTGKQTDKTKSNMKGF
UniProt P48730: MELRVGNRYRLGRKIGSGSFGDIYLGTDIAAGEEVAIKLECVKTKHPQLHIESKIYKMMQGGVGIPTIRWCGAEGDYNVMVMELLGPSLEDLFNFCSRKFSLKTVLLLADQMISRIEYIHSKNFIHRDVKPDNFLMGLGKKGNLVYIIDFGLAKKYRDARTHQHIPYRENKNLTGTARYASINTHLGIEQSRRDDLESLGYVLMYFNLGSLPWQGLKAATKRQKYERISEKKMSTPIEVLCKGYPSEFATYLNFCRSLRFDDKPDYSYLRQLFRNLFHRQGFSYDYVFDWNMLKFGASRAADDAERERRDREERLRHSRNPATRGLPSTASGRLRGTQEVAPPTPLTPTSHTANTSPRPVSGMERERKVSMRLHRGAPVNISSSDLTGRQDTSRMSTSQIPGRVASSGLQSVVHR
UniProt Q08345: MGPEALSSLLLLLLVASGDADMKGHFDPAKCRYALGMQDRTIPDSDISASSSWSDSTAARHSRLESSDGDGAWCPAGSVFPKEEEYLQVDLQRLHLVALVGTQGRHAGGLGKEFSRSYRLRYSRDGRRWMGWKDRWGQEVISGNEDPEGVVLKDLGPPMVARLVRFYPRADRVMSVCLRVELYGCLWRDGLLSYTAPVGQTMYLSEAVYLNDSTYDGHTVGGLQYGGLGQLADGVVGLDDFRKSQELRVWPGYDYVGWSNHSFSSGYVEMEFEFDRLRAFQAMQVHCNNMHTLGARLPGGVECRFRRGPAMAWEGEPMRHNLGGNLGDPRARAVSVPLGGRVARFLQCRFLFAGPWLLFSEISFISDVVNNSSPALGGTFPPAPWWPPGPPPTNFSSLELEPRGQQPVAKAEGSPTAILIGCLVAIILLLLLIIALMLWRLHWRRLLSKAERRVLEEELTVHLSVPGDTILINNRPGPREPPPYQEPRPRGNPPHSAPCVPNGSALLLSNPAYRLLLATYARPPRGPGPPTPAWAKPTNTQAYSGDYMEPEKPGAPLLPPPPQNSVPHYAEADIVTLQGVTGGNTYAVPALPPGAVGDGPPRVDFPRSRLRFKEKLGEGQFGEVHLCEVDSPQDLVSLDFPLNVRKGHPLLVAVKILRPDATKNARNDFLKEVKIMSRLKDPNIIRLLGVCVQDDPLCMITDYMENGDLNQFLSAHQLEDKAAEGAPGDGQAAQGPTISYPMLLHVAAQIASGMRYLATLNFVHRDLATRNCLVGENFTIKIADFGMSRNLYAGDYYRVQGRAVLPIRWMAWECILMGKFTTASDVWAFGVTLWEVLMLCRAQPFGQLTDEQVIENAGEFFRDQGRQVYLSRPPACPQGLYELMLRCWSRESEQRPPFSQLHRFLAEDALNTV
UniProt Q92630: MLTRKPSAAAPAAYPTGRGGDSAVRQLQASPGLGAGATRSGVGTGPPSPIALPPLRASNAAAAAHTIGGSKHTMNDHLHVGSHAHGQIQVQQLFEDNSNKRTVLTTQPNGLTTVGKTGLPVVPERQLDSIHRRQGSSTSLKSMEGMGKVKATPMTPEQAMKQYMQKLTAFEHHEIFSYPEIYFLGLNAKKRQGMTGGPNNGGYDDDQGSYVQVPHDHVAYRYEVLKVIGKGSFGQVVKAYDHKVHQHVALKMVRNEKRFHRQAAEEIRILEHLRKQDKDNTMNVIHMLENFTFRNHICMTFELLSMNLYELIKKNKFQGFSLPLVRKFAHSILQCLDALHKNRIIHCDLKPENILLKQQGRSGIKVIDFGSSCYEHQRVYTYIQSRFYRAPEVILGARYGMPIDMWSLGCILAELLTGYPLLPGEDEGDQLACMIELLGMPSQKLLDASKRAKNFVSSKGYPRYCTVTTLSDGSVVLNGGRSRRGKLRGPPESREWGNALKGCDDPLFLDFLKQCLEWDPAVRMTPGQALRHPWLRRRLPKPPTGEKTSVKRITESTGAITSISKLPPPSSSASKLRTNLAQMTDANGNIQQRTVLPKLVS

How the values were obtained:
Test in all cases: number of time points (of 5) at which kinase-Nluc abundance scored as decreased, DMSO-normalised (count); higher = more persistent destabilization
Conditions in all cases: K562; 2-18 h
CAMK2A = CAMK2A (UniProt Q9UQM7)
CAMK2G = CAMK2G (UniProt Q13555)
CDK10 = CDK10 (UniProt Q15131)
CDK2 = CDK2 (UniProt P24941)
CDK3 = CDK3 (UniProt Q00526)
CDK5 = CDK5 (UniProt Q00535)
CDK6 = CDK6 (UniProt Q00534)
CHEK2 = CHEK2 (UniProt O96017)
CSF1R = CSF1R (UniProt P07333)
CSK = CSK (UniProt P41240)
CSNK1A1 = CSNK1A1 (UniProt P48729)
CSNK1D = CSNK1D (UniProt P48730)
DDR1 = DDR1 (UniProt Q08345)
DYRK1B = DYRK1B (UniProt Q9Y463)
DYRK2 = DYRK2 (UniProt Q92630)
EGFR = EGFR (UniProt P00533)
EGFR_G719S = EGFR_G719S (UniProt P00533)
EGFR_G719S_T790M = EGFR_G719S_T790M (UniProt P00533)
EGFR_L718V = EGFR_L718V (UniProt P00533)
EGFR_L858R = EGFR_L858R (UniProt P00533)

Measured: number of time points

Nc1n[nH]c2nc(-c3ccc(NS(=O)(=O)c4cc(Cl)ccc4F)cc3)cnc12 (10 µM)
5: CDK10 | DDR1
0: all other assays above

Cc1ccc(C(=O)Nc2sc(Nc3ccccc3)nc2C(N)=O)cc1 (10 µM)
0: all assays above

COc1ccccc1C(=O)/C=C/c1ccccc1C(=O)O (10 µM)
0: all assays above

Cn1cc(C2=C(c3cccc(N)c3)C(=O)NC2=O)c2ccccc21 (10 µM)
0: all assays above

COCCNc1cc(NC(=O)N2CCCc3cc(CN4CCN(C)CC4=O)c(C=O)nc32)ncc1C#N [Roblitinib] (10 µM)
0: all assays above

CNC(=O)c1ccccc1Nc1nc(Nc2ccc3c(c2OC)CCC[C@H](N2CCN(CCO)CC2)C3)ncc1Cl (10 µM)
4: DYRK2
1: CAMK2G | DYRK1B | EGFR_G719S | EGFR_G719S_T790M | EGFR_L718V | EGFR_L858R
2: CHEK2 | DDR1
0: all other assays above

Cc1ncc(NC(=O)NC2c3ccccc3-c3ccccc32)c(-c2ccccc2)n1 (10 µM)
0: all assays above

C=CC(=O)Nc1cccc(-c2cccc3cnc(Nc4ccc(N5CCN(CCO)CC5)c(F)c4F)nc23)c1 [Olafertinib] (2.5 µM)
2: DYRK2
0: all other assays above

N[C@@H](CCC(=O)O)C(=O)N[C@@H](Cc1c[nH]c2ccccc12)C(=O)O [Oglufanide] (10 µM)
0: all assays above

C[C@@H]1CN(c2cc(-c3n[nH]c4ccc(OC5(C)CC5)cc34)ncn2)C[C@H](C)O1 (10 µM)
1: DDR1
0: all other assays above

C=C[C@@](C)(/C=C/c1ccc(O)cc1)CCC=C(C)C [Bakuchiol] (10 µM)
0: all assays above

Cc1ccc(NC(=O)c2ccnc(C(F)(F)F)c2)cc1-c1cc(OCCO)nc(N2CCOCC2)c1 (10 µM)
0: all assays above

Cc1nn(C)c2c1C(c1ccc(C(F)(F)F)cc1)C(C#N)=C(N)O2 (stereo not given) (10 µM)
0: all assays above

O=C(Nc1cccc(C(F)(F)F)c1)c1cccc2cc(Oc3cc(CO)ncn3)ccc12 (10 µM)
0: all assays above

CN(C)c1nc2c(Br)c(Br)c(Br)c(Br)c2[nH]1 (10 µM)
0: all assays above

C#Cc1cccc(Nc2ncnc3cc(OC)c(OCCCCCCC(=O)NO)cc23)c1 (2.5 µM)
0: all assays above

COc1c(Nc2cc(C)[nH]n2)nc(Sc2ccc(S(=O)(=O)Cc3cccc([N+](=O)[O-])c3F)cc2F)nc1N1CCCCC1 [Centrinone-B] (2.5 µM)
1: CDK6
2: CDK2
0: all other assays above

O=C(Nc1cccc(Nc2ncc(Br)c(NCCc3cnc[nH]3)n2)c1)N1CCCC1 (10 µM)
4: DDR1 | DYRK2
1: EGFR_G719S | EGFR_L858R
0: all other assays above

Nc1nccc(Oc2ccc(NC(=O)c3c[nH]cc(-c4ccc(F)cc4)c3=O)cc2F)c1Cl (10 µM)
5: CSF1R
3: CSNK1D
1: CDK6 | DYRK1B | EGFR
4: CDK10 | DYRK2
0: all other assays above

CCOC(=O)N1C/C(=C/c2ccccc2F)C(=O)/C(=C\c2ccccc2F)C1 (2.5 µM)
0: all assays above

CN1CC[C@@H](c2c(O)cc(O)c3c(=O)cc(-c4ccc(C(F)(F)F)cc4Cl)oc23)[C@@H]1CO [Voruciclib (hydrochloride)] (10 µM)
0: all assays above

CN1C(=O)[C@@H](NC(=O)c2n[nH]c(Cc3ccccc3)n2)COc2ccccc21 (10 µM)
0: all assays above

NC(=O)N1CCC(CC(=O)N2CCC([C@H]3c4ncc(Br)cc4CCc4cc(Cl)cc(Br)c43)CC2)CC1 [Lonafarnib] (2.5 µM)
0: all assays above
